Laboratory results taken from patent US20210393523A1 (Avldea Technologies, Inc., priority 2018, published 2021).
Where a sequence shows no end group, the ends are not given.

Test: peptide synthesis
Settings: for outcome: whole synthesis; for final HPLC purity / crude HPLC purity: conjugation step, AUC at 254 nm

## FWFWFWFWFW
  outcome: N | —

## DBCO-2-Amino-1,3-bis(carboxylethoxy)propane(Ahx-F′10)2
  final HPLC purity: 83.4%

## Ks-PEG24-(N3-DBCO)-Ahx-W5
  crude HPLC purity: 90.2%

## {OH-PEG24}4-{propargyl}4K2K{Lys(N3)}-DBCO-2-Amino-1,3-bis(carboxylethoxy)propane(Doxorubucin)4
  final HPLC purity: 95.8%

## {propargyl}4K2K{Lys(N3)}-DBCO-2-Amino-1,3-bis(carboxylethoxy)propane(Doxorubicin)4
  final HPLC purity: 91.3%

## {OH-PEG24}4-{propargyl}4K2K{Lys(N3)}-DBCO-Ahx-W5
  final HPLC purity: 63.0%

## DBCO-Ahx-W5
  final HPLC purity: 92.6%

## DBCO-2-Amino-1,3-bis(carboxylethoxy)propane(Ahx-W5)2
  final HPLC purity: >95%

## {OH-PEG24}4-{propargyl}4K2K{Lys(N3)}-DBCO-Ahx-(F′)10
  final HPLC purity: 94.1%

## {COOH-PEG24}4-{propargyl}4K2K{Lys(N3)}-DBCO-2-Amino-1,3-bis(carboxylethoxy)propane(2BXy)4
Run 1
  final HPLC purity: 98.0%
Run 2
  final HPLC purity: 90.4%

## {propargyl}4K2K{Lys(N3)}-DBCO-Ahx-W5
  final HPLC purity: 99.4%

## LLLLLLLLLL
  outcome: N | —

## DBCO-Ahx-(F′)20
  final HPLC purity: 94.4%

## WWWWWWWWWW
  outcome: Y | Crude

## FFFFFFFFFF
  outcome: N | —

## {OH-PEG24}4-{propargyl}4K2K{Lys(N3)}-DBCO-2-Amino-1,3-bis(carboxylethoxy)propane(2BXy)4
  final HPLC purity: 99.3%

## {NH2—PEG24}4-{propargyl}4K2K{Lys(N3)}-DBCO-2-Amino-1,3-bis(carboxylethoxy)propane(2BXy)4
  final HPLC purity: 67.7%

## {propargyl}4K2K{Lys(N3)}-DBCO-Ahx-(F′)10
  crude HPLC purity: 96.1%
